The assay has as its target Strep-B56α (UniProt Q15172). The assay can be described thus: pull-down; Strep-B56α, His-PP2ACA and MBP-PPP2R1A co-expressed in HEK293; complex purified by a Strep-tag affinity column, peak fractions run on a GF200 10/30 column; 100 mM Tris pH 8.0, 150 mM NaCl, 10% glycerol, 0.5 mM TCEP.

Sequences of proteins named here, by UniProt entry; tags and fusion partners are left off. A change or cut given only in a name is not applied to a line headed by its entry.
UniProt Q15172: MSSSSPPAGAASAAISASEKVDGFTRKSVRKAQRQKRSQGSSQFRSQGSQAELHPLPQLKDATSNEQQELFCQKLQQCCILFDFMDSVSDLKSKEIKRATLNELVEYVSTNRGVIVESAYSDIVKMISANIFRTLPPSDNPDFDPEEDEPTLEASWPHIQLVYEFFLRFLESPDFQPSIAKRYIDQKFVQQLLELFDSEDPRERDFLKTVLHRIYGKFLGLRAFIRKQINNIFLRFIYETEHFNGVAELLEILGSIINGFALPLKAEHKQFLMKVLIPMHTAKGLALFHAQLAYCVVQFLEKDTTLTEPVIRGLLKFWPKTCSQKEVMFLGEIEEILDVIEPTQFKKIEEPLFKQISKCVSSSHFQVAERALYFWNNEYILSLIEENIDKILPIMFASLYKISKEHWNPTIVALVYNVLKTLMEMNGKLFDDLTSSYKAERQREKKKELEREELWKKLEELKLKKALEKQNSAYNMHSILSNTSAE
UniProt P67775: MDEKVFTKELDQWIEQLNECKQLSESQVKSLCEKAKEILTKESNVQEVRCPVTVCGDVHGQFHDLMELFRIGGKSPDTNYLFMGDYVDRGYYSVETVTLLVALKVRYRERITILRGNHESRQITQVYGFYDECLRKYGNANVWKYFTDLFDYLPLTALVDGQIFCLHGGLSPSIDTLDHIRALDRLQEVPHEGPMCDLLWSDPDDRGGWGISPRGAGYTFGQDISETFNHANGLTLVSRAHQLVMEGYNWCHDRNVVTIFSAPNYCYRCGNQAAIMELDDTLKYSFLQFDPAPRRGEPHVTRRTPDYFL

Results are given in words; binding and its absence hold for the method and conditions named. In cells and extracts the contact can be indirect. Binding calls can cover weak binding; strength is not graded here.

In the case of “His-PP2ACA (from UniProt P67775) (enzyme)”, the binding result is given as “binds”.

Values taken from paper PMC9289710.
